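The test systems are human melanoma cell lines, treated with two drugs together for 72 h and then stained and imaged. Values are the number of DAPI-stained nuclei as a percentage of the DMSO control: 100 is no effect, lower means fewer cells. Concentrations were fixed for each drug; these are the lower of two levels, a fifth of the higher. No replicate spread is given; individual values may be noisy.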
Only some of the drugs and lines screened are listed, without regard to their results.

Drug key:
LFM-A13 (2 µM): C/C(O)=C(\C#N)C(=O)Nc1cc(Br)ccc1Br
L-779450 (0.2 µM): Oc1cc(-c2nc(-c3ccccc3)[nH]c2-c2ccncc2)ccc1Cl
bortezomib (0.001 µM): CC(C)C[C@H](NC(=O)[C@H](Cc1ccccc1)NC(=O)c1cnccn1)B(O)O
A-769662 (2 µM): N#Cc1c(O)c2c(-c3ccc(-c4ccccc4O)cc3)csc2[nH]c1=O
SNS-032 (0.01 µM): CC(C)(C)c1cnc(CSc2cnc(NC(=O)C3CCNCC3)s2)o1
embelin (1.2 µM): CCCCCCCCCCCC1=C(O)C(=O)C=C(O)C1=O
XAV939 (2 µM): Oc1nc(-c2ccc(C(F)(F)F)cc2)nc2c1CSCC2
AZD7762 (0.02 µM): NC(=O)Nc1cc(-c2cccc(F)c2)sc1C(=O)N[C@H]1CCCNC1
JZL184 (1 µM): O=C(Oc1ccc([N+](=O)[O-])cc1)N1CCC(C(O)(c2ccc3c(c2)OCO3)c2ccc3c(c2)OCO3)CC1
OSU-03012 (1 µM): NCC(=O)Nc1ccc(-n2nc(C(F)(F)F)cc2-c2ccc3c(ccc4ccccc43)c2)cc1
tipifarnib (0.01 µM): Cn1cncc1[C@@](N)(c1ccc(Cl)cc1)c1ccc2c(c1)c(-c1cccc(Cl)c1)cc(=O)n2C
gemcitabine (0.0004 µM): Nc1ccn([C@@H]2O[C@H](CO)[C@@H](O)C2(F)F)c(=O)n1
nilutamide (1 µM): CC1(C)NC(=O)N(c2ccc([N+](=O)[O-])c(C(F)(F)F)c2)C1=O
STA-4783 (0.006 µM): CN(NC(=O)CC(=O)NN(C)C(=S)c1ccccc1)C(=S)c1ccccc1

| Drugs | IPC-298 |
|---|---|
| L-779450 and AZD7762 | 97.5 |
| JZL184 and nilutamide | 90.7 |
| OSU-03012 and JZL184 | 97.4 |
| AZD7762 and LFM-A13 | 99.6 |
| tipifarnib and gemcitabine | 86.9 |
| SNS-032 and JZL184 | 100 |
| embelin and SNS-032 | 110 |
| XAV939 and OSU-03012 | 93.6 |
| embelin and bortezomib | 105 |
| JZL184 and AZD7762 | 109 |
| LFM-A13 and A-769662 | 104 |
| STA-4783 and L-779450 | 84.4 |
| OSU-03012 and L-779450 | 74.1 |
| nilutamide and XAV939 | 97.4 |
| bortezomib and L-779450 | 80.7 |
| XAV939 and SNS-032 | 96.2 |
| OSU-03012 and LFM-A13 | 80.1 |
| XAV939 and STA-4783 | 84.3 |
| nilutamide and L-779450 | 77.1 |
| OSU-03012 and A-769662 | 88.7 |
| A-769662 and bortezomib | 83.2 |
| bortezomib and AZD7762 | 87.3 |
| L-779450 and gemcitabine | 79.5 |
| A-769662 and SNS-032 | 95.5 |
| XAV939 and bortezomib | 97.1 |
| gemcitabine and nilutamide | 91.8 |
| STA-4783 and LFM-A13 | 95.4 |
| gemcitabine and JZL184 | 95.9 |
| tipifarnib and A-769662 | 96.8 |
| embelin and JZL184 | 97.2 |
| LFM-A13 and gemcitabine | 87.6 |
| OSU-03012 and embelin | 107 |
| tipifarnib and XAV939 | 94.2 |
| XAV939 and AZD7762 | 99.9 |
| SNS-032 and gemcitabine | 95.2 |
| A-769662 and STA-4783 | 96.0 |
| gemcitabine and OSU-03012 | 73.9 |
| A-769662 and nilutamide | 104 |
| JZL184 and STA-4783 | 99.1 |

Once more, the final 3:

| Drugs | IPC-298 |
|---|---|
| gemcitabine and OSU-03012 | 73.9 |
| A-769662 and nilutamide | 104 |
| JZL184 and STA-4783 | 99.1 |

Data from the primary screen of doi:10.1371/journal.pone.0140310, rounded.